Publication PMC5014551
These are yes or no findings as the source states them, for the method shown. Some binding calls cover weakened binding; strength is not graded here.

T1: recombinant human BOLA3, fluorescently labelled (human) (UniProt Q53S33)
T1 sequence (chain, NT-647 dye (Monolith NT Protein Labeling Kit RED)): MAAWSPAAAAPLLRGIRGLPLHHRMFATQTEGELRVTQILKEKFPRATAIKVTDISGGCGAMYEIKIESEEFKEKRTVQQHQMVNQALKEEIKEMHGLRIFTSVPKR

T2: recombinant human BOLA1, fluorescently labelled (human) (UniProt Q9Y3E2)
T2 sequence (chain, NT-647 dye (Monolith NT Protein Labeling Kit RED)): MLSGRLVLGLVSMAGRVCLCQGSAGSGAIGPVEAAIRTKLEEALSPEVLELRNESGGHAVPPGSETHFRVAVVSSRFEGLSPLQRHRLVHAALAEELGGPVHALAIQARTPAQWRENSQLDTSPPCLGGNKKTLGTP


Columns and labels:
[1] = target: Bol3-Strep (S. cerevisiae) (UniProt P39724); assay: SEC; mitochondrial lysates (sonication, 50 mM NaPO4, 150 mM NaCl, pH 7.0) of Nfu1-Strep or Bol3-Strep cells chromatographed separately on HiLoad Superdex 75 PG 16/600; fractions immunoblotted; DTT left the Nfu1 elution unaffected, dithionite attenuated the apparent dimer
[2] = target: T1, recombinant human BOLA3, fluorescently labelled (human); assay: MST; 200 nM NT-647 labelled protein titrated with unlabelled protein from 200 µM to 6.1 nM; 50 mM KPi pH 7.4, 150 mM NaCl, 5% glycerol, 0.05 mg/mL BSA, 0.05% Tween20; 21°C; anaerobic; both purified
[3] = target: T2, recombinant human BOLA1, fluorescently labelled (human); assay: as above

Row | binding [1] | binding [2] | binding [3] | Binder
1 | no binding |  |  | Bol3-Strep (protein, UniProt P39724 1-118) MKLPQTMLRSISVKHVRWPRILTGSKLWYSTQMAMTPEEKMITDKLQQELEPEVCKVQDVSGGCGSMFAINITSKKFNGLSLIKQHQLVNRILRDDISRWHGLQLTTKKSTGKGPASS
2 |  | binds |  | human holo-GLRX5 dimer containing the bridging [2Fe-2S] cluster (protein, UniProt Q86SX6 32-157, bridging [2Fe-2S] cluster between two GLRX5 monomers) AGSGAGGGGSAEQLDALVKKDKVVVFLKGTPEQPQCGFSNAVVQILRLHGVRDYAAYNVLDDPELRQGIKDYSNWPTIPQVYLNGEFVGGCDILLQMHQNGDLVEELKKLGIHSALLDEKKDQDSK
3 |  | binds | binds | human apo-GLRX5 (protein, UniProt Q86SX6 32-157) AGSGAGGGGSAEQLDALVKKDKVVVFLKGTPEQPQCGFSNAVVQILRLHGVRDYAAYNVLDDPELRQGIKDYSNWPTIPQVYLNGEFVGGCDILLQMHQNGDLVEELKKLGIHSALLDEKKDQDSK
